Assay results as given in patent US20110251256A1 (KOREA UNIVERSITY INDUSTRIAL AND ACADEMIC COLLABORATIVE …, published 2011).
These are yes or no findings as the source states them, for the method shown. In cells and extracts the contact can be indirect. Some results given as binding are weak or reduced against the parent protein; the word gives no strength. Sequences can lack the tags named with a protein. Each block holds one molecule with its values, some of them ahead of it.

By UniProt entry, the sequences of proteins in these tests, tags left out. Where a name states a change or a piece, a line headed by the entry shows the natural chain unless it says otherwise.
UniProt P35568: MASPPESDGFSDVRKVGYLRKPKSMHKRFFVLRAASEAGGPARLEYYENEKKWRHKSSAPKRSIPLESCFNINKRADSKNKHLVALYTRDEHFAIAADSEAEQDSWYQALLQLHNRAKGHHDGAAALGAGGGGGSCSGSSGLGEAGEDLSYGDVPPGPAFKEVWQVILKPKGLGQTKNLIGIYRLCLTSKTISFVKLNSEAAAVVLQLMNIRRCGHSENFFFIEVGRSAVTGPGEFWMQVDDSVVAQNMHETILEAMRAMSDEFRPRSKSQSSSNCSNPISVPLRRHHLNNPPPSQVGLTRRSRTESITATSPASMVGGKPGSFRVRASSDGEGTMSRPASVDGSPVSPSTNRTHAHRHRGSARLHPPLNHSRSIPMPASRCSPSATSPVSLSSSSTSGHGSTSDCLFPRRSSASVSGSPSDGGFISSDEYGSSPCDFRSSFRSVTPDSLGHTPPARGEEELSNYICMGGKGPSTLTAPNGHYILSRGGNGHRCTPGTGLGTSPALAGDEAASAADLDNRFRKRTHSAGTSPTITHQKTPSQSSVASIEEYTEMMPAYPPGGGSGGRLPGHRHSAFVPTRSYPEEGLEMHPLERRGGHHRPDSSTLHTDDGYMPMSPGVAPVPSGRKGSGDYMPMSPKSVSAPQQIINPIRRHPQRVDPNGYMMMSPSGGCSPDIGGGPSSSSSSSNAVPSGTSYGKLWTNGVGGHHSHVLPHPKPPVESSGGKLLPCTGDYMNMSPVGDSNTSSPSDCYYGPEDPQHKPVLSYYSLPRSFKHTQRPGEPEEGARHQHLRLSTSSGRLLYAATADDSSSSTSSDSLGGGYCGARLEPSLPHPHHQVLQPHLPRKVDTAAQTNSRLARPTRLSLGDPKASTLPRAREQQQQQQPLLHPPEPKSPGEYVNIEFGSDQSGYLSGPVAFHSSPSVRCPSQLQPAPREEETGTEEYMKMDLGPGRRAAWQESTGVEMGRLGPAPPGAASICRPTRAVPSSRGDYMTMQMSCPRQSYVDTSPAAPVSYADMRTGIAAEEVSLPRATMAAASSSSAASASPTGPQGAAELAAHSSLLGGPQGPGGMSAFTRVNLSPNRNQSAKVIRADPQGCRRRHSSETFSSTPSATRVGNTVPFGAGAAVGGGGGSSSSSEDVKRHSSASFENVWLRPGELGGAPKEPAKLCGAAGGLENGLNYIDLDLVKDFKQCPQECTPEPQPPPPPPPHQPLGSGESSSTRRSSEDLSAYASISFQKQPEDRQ

Assays:
[1] = biological target: T1, Myc-TRIM72 (full-length, cDNA 1-1431) (Homo sapiens (Human)) (UniProt Q6ZMU5); experiment: co-immunoprecipitation, Myc-TRIM72 and Flag-IRS-1 mutants in 293 cells with MG132 (FIG. 9C)
T1 sequence: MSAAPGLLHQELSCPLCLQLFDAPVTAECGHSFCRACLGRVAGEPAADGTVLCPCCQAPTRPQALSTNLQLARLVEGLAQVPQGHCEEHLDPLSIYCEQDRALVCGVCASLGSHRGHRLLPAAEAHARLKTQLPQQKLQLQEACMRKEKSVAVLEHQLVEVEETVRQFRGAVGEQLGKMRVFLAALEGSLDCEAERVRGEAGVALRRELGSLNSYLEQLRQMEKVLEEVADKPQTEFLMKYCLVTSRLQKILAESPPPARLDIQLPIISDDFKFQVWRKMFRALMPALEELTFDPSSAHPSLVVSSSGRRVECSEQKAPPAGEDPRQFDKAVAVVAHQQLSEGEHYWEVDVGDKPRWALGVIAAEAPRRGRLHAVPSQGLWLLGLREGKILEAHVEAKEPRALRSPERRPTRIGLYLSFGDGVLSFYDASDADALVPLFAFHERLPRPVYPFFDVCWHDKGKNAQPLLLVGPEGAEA

[2] = biological target: Flag-IRS-1 (full-length, cDNA 1-3729) (UniProt P35568); experiment: co-immunoprecipitation, Flag-IRS-1 and Myc-TRIM72 mutants in 293 cells with MG132 (FIG. 9D)

binding [1]: binds
Molecule: Flag-IRS-1 Mid-region (cDNA 880-2608; Mid (300-870)) (from UniProt P35568 300-870)

binding [1]: binds
Molecule: Flag-IRS-1 Rear-region (cDNA 2581-3729; Rear (871-1243)) (from UniProt P35568 861-1242)

binding [2]: binds
B1: Myc-TRIM72 coiled-coil construct (cDNA 367-1020) (protein, not shown: small tags and cut ends)
chain: AEAHARLKTQLPQQKLQLQEACMRKEKSVAVLEHQLVEVEETVRQFRGAVGEQLGKMRVFLAALEGSLDCEAERVRGEAGVALRRELGSLNSYLEQLRQMEKVLEEVADKPQTEFLMKYCLVTSRLQKILAESPPPARLDIQLPIISDDFKFQVWRKMFRALMPALEELTFDPSSAHPSLVVSSSGRRVECSEQKAPPAGEDPRQFDKAVAVVAHQQL
